Literature values as cited in US20110092602A1, “RAPIDLY DISINTEGRATING ORAL COMPOSITIONS OF TRAMADOL” (priority 2008, published 2011).

Tested on: reuptake of norepinephrine

## COc1cccc(C2(O)CCCCC2CN(C)C)c1 (stereo not shown) [Tramadol, 2-dimethylaminomethyl-1-(3-methoxyphenyl)cyclohexanol]
  inhibition of reuptake of norepinephrine: weak inhibition
